Reference: paper PMC7243081 (Slas Discovery, 2019)

Protein sequences, listed by entry. Tags and fused reporters are not part of them. Residues count along the entry.
UniProt P18508, 39-466: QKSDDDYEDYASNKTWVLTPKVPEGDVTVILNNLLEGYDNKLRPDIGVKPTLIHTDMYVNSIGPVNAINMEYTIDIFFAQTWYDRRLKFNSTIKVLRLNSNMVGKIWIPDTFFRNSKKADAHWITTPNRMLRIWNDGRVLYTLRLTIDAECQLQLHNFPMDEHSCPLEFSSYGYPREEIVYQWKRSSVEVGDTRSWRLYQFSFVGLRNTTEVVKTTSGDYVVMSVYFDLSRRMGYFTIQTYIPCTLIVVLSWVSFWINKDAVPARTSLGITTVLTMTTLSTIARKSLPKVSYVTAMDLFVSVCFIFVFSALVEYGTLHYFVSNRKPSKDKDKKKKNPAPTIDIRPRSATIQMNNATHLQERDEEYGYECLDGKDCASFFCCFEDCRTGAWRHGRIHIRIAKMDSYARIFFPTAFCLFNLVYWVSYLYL
UniProt P62813, 28-455: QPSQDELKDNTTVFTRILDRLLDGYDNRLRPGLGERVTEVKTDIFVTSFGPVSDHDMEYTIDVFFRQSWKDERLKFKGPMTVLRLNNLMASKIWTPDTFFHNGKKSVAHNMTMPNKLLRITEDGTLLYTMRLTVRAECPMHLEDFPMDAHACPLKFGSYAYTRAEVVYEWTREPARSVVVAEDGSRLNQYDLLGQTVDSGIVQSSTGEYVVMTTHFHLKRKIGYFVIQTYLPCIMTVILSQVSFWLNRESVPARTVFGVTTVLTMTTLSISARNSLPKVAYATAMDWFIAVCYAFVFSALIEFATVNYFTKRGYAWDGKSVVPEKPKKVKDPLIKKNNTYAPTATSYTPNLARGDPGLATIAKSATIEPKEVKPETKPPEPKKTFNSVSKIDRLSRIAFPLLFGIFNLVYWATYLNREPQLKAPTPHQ
UniProt P63138, 25-474 limits assumed: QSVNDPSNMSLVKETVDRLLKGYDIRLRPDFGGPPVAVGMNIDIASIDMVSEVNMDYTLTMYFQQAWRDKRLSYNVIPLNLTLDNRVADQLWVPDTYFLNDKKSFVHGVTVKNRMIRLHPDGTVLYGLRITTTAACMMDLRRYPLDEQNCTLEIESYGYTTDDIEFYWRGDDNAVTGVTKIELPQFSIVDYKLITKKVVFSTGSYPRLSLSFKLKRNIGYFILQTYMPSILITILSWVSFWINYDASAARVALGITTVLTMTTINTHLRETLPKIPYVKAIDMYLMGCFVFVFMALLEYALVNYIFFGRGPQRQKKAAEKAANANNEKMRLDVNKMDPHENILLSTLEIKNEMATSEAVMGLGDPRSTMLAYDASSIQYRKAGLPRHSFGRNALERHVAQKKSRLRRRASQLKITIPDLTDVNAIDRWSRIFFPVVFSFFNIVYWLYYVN

Molecular target: α1, β2, and γ2s subunits of the rat GABAA receptors (HEK-GABA cells) (Rattus norvegicus, UniProt P18508+P62813+P63138)
Experiment: QP-DHM blind agonist screen
Assay type: cell-based
Details: Table 1, dose-response curves of validated hits

CC(=O)[C@H]1CC[C@H]2[C@@H]3CC[C@H]4C[C@H](O)CC[C@]4(C)[C@H]3C(=O)C[C@]12C [STOCK1N-51728, Alphaxalone]
Amplitude (%): 60%
Hill Coefficient: 1.6–1.8
